# Laboratory results taken from the supplement of paper PMC8728848.
# The list shows a part of the results.
# B1: CTLX (Homo sapiens), Q6UXS0 (protein)
# chain: SLCPLFWMEFKGHCYRFFPLNKTWAEADLYCSEFSVGRKSAKLASIHSWEENVFVYDLVNSCVPGIPADVWTGLHDHRQEGQFEWTDGSSYDYSYWDGSQPDDGVHADPEEEDCVQIWYRPTSALRSWNDNTCSRKFPFVCKIPSLTIH
# Tests used:
# Experiment in all cases: glycan array binding signal (z-score within array); higher = stronger binding
# Conditions in all cases: glycan notation: IUPAC condensed, linker removed
# Gal(b1-3)Gal = molecular target: Gal(b1-3)Gal
# Procedure, shortened: (§1)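 The binding signal is a Z-score computed within each array. Data were drawn from 3228 arrays in the Consortium for Functional Glycomics database, restricted to those with a known protein sequence. Scores were averaged over arrays of the same protein sequence at different concentrations or buffers, and over linkers, and negative values can be taken as non-binding.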
# Gal(b1-3)Gal(b1-4)GlcNAc = molecular target: Gal(b1-3)Gal(b1-4)GlcNAc
# Procedure, shortened: as §1
# [1] = molecular target: Gal(b1-3)Gal(b1-4)GlcNAc(b1-2)Man(a1-3)[Gal(b1-3)Gal(b1-4)GlcNAc(b1-2)Man(a1-6)]Man(b1-4)GlcNAc(b1-4)GlcNAc
# Procedure, shortened: as §1
# Gal(b1-3)GalNAc = molecular target: Gal(b1-3)GalNAc
# Procedure, shortened: as §1
# [2] = molecular target: Gal(b1-3)GalNAc(a1-3)[Fuc(a1-2)]Gal(b1-4)Glc
# Procedure, shortened: as §1
# [3] = molecular target: Gal(b1-3)GalNAc(a1-3)[Fuc(a1-2)]Gal(b1-4)GlcNAc
# Procedure, shortened: as §1
# [4] = molecular target: Gal(b1-3)GalNAc(b1-3)Gal(a1-4)Gal(b1-4)Glc
# Procedure, shortened: as §1
# [5] = molecular target: Gal(b1-3)GalNAc(b1-4)Gal(b1-4)Glc
# Procedure, shortened: as §1
# [6] = molecular target: Gal(b1-3)GalNAc(b1-4)[Neu5Ac(a2-3)]Gal(b1-4)Glc
# Procedure, shortened: as §1
# Gal(b1-3)GlcNAc = molecular target: Gal(b1-3)GlcNAc
# Procedure, shortened: as §1
# [7] = molecular target: Gal(b1-3)GlcNAc(b1-2)Man(a1-3)[Gal(b1-3)GlcNAc(b1-2)Man(a1-6)]Man(b1-4)GlcNAc(b1-4)GlcNAc
# Procedure, shortened: as §1
# [8] = molecular target: Gal(b1-3)GlcNAc(b1-2)Man(a1-3)[Gal(b1-3)GlcNAc(b1-2)Man(a1-6)]Man(b1-4)GlcNAc(b1-4)[Fuc(a1-6)]GlcNAc
# Procedure, shortened: as §1
# [9] = molecular target: Gal(b1-3)GlcNAc(b1-3)Gal(b1-3)GlcNAc
# Procedure, shortened: as §1
# [10] = molecular target: Gal(b1-3)GlcNAc(b1-3)Gal(b1-4)Glc
# Procedure, shortened: as §1
# [11] = molecular target: Gal(b1-3)GlcNAc(b1-3)Gal(b1-4)GlcNAc
# Procedure, shortened: as §1
# [12] = molecular target: Gal(b1-3)[Fuc(a1-4)]GlcNAc
# Procedure, shortened: as §1
# [13] = molecular target: Gal(b1-3)[Fuc(a1-4)]GlcNAc(b1-2)Man(a1-3)[Gal(b1-3)[Fuc(a1-4)]GlcNAc(b1-2)Man(a1-6)]Man(b1-4)GlcNAc(b1-4)GlcNAc
# Procedure, shortened: as §1
# [14] = molecular target: Gal(b1-3)[Fuc(a1-4)]GlcNAc(b1-2)Man(a1-3)[Gal(b1-3)[Fuc(a1-4)]GlcNAc(b1-2)Man(a1-6)]Man(b1-4)GlcNAc(b1-4)[Fuc(a1-6)]GlcNAc
# Procedure, shortened: as §1
# [15] = molecular target: Gal(b1-3)[Fuc(a1-4)]GlcNAc(b1-3)Gal(b1-3)[Fuc(a1-4)]GlcNAc
# Procedure, shortened: as §1
# [16] = molecular target: Gal(b1-3)[Fuc(a1-4)]GlcNAc(b1-3)Gal(b1-4)GlcNAc
# Procedure, shortened: as §1
# [17] = molecular target: Gal(b1-3)[Fuc(a1-4)]GlcNAc(b1-3)Gal(b1-4)[Fuc(a1-3)]GlcNAc
# Procedure, shortened: as §1
# [18] = molecular target: Gal(b1-3)[GlcNAc(b1-6)]GalNAc
# Procedure, shortened: as §1
# [19] = molecular target: Gal(b1-3)[Neu5Ac(a2-6)]GalNAc
# Procedure, shortened: as §1
# [20] = molecular target: Gal(b1-3)[Neu5Ac(a2-6)]GlcNAc(b1-6)Gal(b1-4)Glc
# Procedure, shortened: as §1
# [21] = molecular target: Gal(b1-3)[Neu5Ac(b2-6)]GalNAc
# Procedure, shortened: as §1
# [22] = molecular target: Gal(b1-4)GalNAc(a1-3)[Fuc(a1-2)]Gal(b1-4)GlcNAc
# Procedure, shortened: as §1
# [23] = molecular target: Gal(b1-4)GalNAc(b1-3)[Fuc(a1-2)]Gal(b1-4)GlcNAc
# Procedure, shortened: as §1
# Gal(b1-4)Glc = molecular target: Gal(b1-4)Glc
# Procedure, shortened: as §1
# Gal(b1-4)Glc6S = molecular target: Gal(b1-4)Glc6S
# Procedure, shortened: as §1
# Gal(b1-4)GlcNAc = molecular target: Gal(b1-4)GlcNAc
# Procedure, shortened: as §1
# [24] = molecular target: Gal(b1-4)GlcNAc(a1-6)Gal(b1-4)GlcNAc
# Procedure, shortened: as §1
# [25] = molecular target: Gal(b1-4)GlcNAc(b1-2)Man(a1-3)Man(b1-4)GlcNAc(b1-4)GlcNAc
# Procedure, shortened: as §1
# [26] = molecular target: Gal(b1-4)GlcNAc(b1-2)Man(a1-3)[Gal(b1-4)GlcNAc(b1-2)Man(a1-6)]Man(b1-4)GlcNAc(b1-4)GlcNAc
# Procedure, shortened: as §1
# [27] = molecular target: Gal(b1-4)GlcNAc(b1-2)Man(a1-3)[Gal(b1-4)GlcNAc(b1-2)Man(a1-6)]Man(b1-4)GlcNAc(b1-4)[Fuc(a1-6)]GlcNAc
# Procedure, shortened: as §1
# [28] = molecular target: Gal(b1-4)GlcNAc(b1-2)Man(a1-3)[Man(a1-6)]Man(b1-4)GlcNAc(b1-4)GlcNAc
# Procedure, shortened: as §1
# [29] = molecular target: Gal(b1-4)GlcNAc(b1-2)Man(a1-6)Man(b1-4)GlcNAc(b1-4)GlcNAc
# Procedure, shortened: as §1
# [30] = molecular target: Gal(b1-4)GlcNAc(b1-2)Man(a1-6)[Man(a1-3)]Man(b1-4)GlcNAc(b1-4)GlcNAc
# Procedure, shortened: as §1
# [31] = molecular target: Gal(b1-4)GlcNAc(b1-2)[Gal(b1-4)GlcNAc(b1-4)]Man(a1-3)[Gal(b1-4)GlcNAc(b1-2)Man(a1-6)]Man(b1-4)GlcNAc(b1-4)GlcNAc
# Procedure, shortened: as §1
# [32] = molecular target: Gal(b1-4)GlcNAc(b1-3)Gal(b1-3)GlcNAc
# Procedure, shortened: as §1
# [33] = molecular target: Gal(b1-4)GlcNAc(b1-3)Gal(b1-4)Glc
# Procedure, shortened: as §1
# [34] = molecular target: Gal(b1-4)GlcNAc(b1-3)Gal(b1-4)GlcNAc
# Procedure, shortened: as §1
# [35] = molecular target: Gal(b1-4)GlcNAc(b1-3)Gal(b1-4)GlcNAc(b1-3)Gal(b1-4)GlcNAc
# Procedure, shortened: as §1
# [36] = molecular target: Gal(b1-4)GlcNAc(b1-3)Gal(b1-4)[Fuc(a1-3)]GlcNAc(b1-3)Gal(b1-4)[Fuc(a1-3)]GlcNAc
# Procedure, shortened: as §1
# [37] = molecular target: Gal(b1-4)GlcNAc(b1-3)GalNAc
# Procedure, shortened: as §1
# [38] = molecular target: Gal(b1-4)GlcNAc(b1-3)[Gal(b1-4)GlcNAc(b1-6)]Gal(b1-4)GlcNAc
# Procedure, shortened: as §1
binder,measurement,setting,value
B1,glycan array binding signal (z-score),Gal(b1-3)Gal,-0.24
same,glycan array binding signal (z-score),Gal(b1-3)Gal(b1-4)GlcNAc,-0.608
same,glycan array binding signal (z-score),[1],-0.743
same,glycan array binding signal (z-score),Gal(b1-3)GalNAc,0.235
same,glycan array binding signal (z-score),[2],-1.03
same,glycan array binding signal (z-score),[3],-0.574
same,glycan array binding signal (z-score),[4],0.324
same,glycan array binding signal (z-score),[5],0.403
same,glycan array binding signal (z-score),[6],-0.893
same,glycan array binding signal (z-score),Gal(b1-3)GlcNAc,0.253
same,glycan array binding signal (z-score),[7],0.14
same,glycan array binding signal (z-score),[8],-0.994
same,glycan array binding signal (z-score),[9],-0.068
same,glycan array binding signal (z-score),[10],-0.467
same,glycan array binding signal (z-score),[11],-0.392
same,glycan array binding signal (z-score),[12],0.52
same,glycan array binding signal (z-score),[13],4.2
same,glycan array binding signal (z-score),[14],1.69
same,glycan array binding signal (z-score),[15],-0.491
same,glycan array binding signal (z-score),[16],-0.8
same,glycan array binding signal (z-score),[17],-0.251
same,glycan array binding signal (z-score),[18],-0.38
same,glycan array binding signal (z-score),[19],-0.649
same,glycan array binding signal (z-score),[20],0.079
same,glycan array binding signal (z-score),[21],-1.13
same,glycan array binding signal (z-score),[22],0.64
same,glycan array binding signal (z-score),[23],-0.46
same,glycan array binding signal (z-score),Gal(b1-4)Glc,-0.231
same,glycan array binding signal (z-score),Gal(b1-4)Glc6S,-0.321
same,glycan array binding signal (z-score),Gal(b1-4)GlcNAc,-0.156
same,glycan array binding signal (z-score),[24],-0.439
same,glycan array binding signal (z-score),[25],-0.563
same,glycan array binding signal (z-score),[26],-0.612
same,glycan array binding signal (z-score),[27],-0.711
same,glycan array binding signal (z-score),[28],-0.746
same,glycan array binding signal (z-score),[29],-0.102
same,glycan array binding signal (z-score),[30],0.223
same,glycan array binding signal (z-score),[31],1.05
same,glycan array binding signal (z-score),[32],0.157
same,glycan array binding signal (z-score),[33],0.037
same,glycan array binding signal (z-score),[34],-0.436
same,glycan array binding signal (z-score),[35],-0.836
same,glycan array binding signal (z-score),[36],-0.097
same,glycan array binding signal (z-score),[37],0.46
same,glycan array binding signal (z-score),[38],-0.685
